# Laboratory results taken from the supplement of paper PMC8728848.
# The list shows a part of the results.
# Legend:
# Experiment in all cases: glycan array binding signal (z-score within array); higher = stronger binding
# Conditions in all cases: glycan notation: IUPAC condensed, linker removed
# [1] = molecular target: Neu5Ac(a2-6)GlcNAc(b1-4)GlcNAc(b1-4)GlcNAc
# Outline: (§1)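 Arrays were curated from the Consortium for Functional Glycomics database, 3228 in total, and kept only where the protein sequence was available. Binding is expressed as a within-array Z-score. This score was averaged across arrays of the same protein sequence at different concentrations or buffers and across linkers, and negative values can be read as non-binding.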
# Neu5Ac(a2-8)Neu5Ac = molecular target: Neu5Ac(a2-8)Neu5Ac
# Outline: as §1
# [2] = molecular target: Neu5Ac(a2-8)Neu5Ac(a2-3)Gal(b1-3)GalNAc(b1-4)[Neu5Ac(a2-3)]Gal(b1-4)Glc
# Outline: as §1
# [3] = molecular target: Neu5Ac(a2-8)Neu5Ac(a2-3)Gal(b1-3)GalNAc(b1-4)[Neu5Ac(a2-8)Neu5Ac(a2-3)]Gal(b1-4)Glc
# Outline: as §1
# [4] = molecular target: Neu5Ac(a2-8)Neu5Ac(a2-3)Gal(b1-4)Glc
# Outline: as §1
# [5] = molecular target: Neu5Ac(a2-8)Neu5Ac(a2-3)Gal(b1-4)GlcNAc
# Outline: as §1
# [6] = molecular target: Neu5Ac(a2-8)Neu5Ac(a2-3)[Gal(b1-3)GalNAc(b1-4)]Gal(b1-4)Glc
# Outline: as §1
# [7] = molecular target: Neu5Ac(a2-8)Neu5Ac(a2-3)[GalNAc(b1-4)]Gal(b1-4)Glc
# Outline: as §1
# [8] = molecular target: Neu5Ac(a2-8)Neu5Ac(a2-8)Neu5Ac
# Outline: as §1
# [9] = molecular target: Neu5Ac(a2-8)Neu5Ac(a2-8)Neu5Ac(a2-3)Gal(b1-4)Glc
# Outline: as §1
# [10] = molecular target: Neu5Ac(a2-8)Neu5Ac(a2-8)Neu5Ac(a2-3)[Gal(b1-3)GalNAc(b1-4)]Gal(b1-4)Glc
# Outline: as §1
# [11] = molecular target: Neu5Ac(a2-8)Neu5Ac(a2-8)Neu5Ac(a2-3)[GalNAc(b1-4)]Gal(b1-4)Glc
# Outline: as §1
# [12] = molecular target: Neu5Ac(a2-8)Neu5Ac(a2-8)Neu5Ac(a2-8)Neu5Ac(a2-3)[GalNAc(b1-4)]Gal(b1-4)Glc
# Outline: as §1
# [13] = molecular target: Neu5Ac(a2-8)Neu5Gc(a2-3)Gal(b1-4)GlcNAc
# Outline: as §1
# [14] = molecular target: Neu5Ac(b2-6)Gal(b1-4)GlcNAc
# Outline: as §1
# Neu5Ac(b2-6)GalNAc = molecular target: Neu5Ac(b2-6)GalNAc
# Outline: as §1
# [15] = molecular target: Neu5Ac9Ac(a2-3)Gal(b1-3)GlcNAc
# Outline: as §1
# [16] = molecular target: Neu5Ac9Ac(a2-3)Gal(b1-4)GlcNAc
# Outline: as §1
# [17] = molecular target: Neu5Ac9Ac(a2-6)Gal(b1-4)GlcNAc
# Outline: as §1
# [18] = molecular target: Neu5Gc(a2-3)Gal(b1-3)GlcNAc
# Outline: as §1
# [19] = molecular target: Neu5Gc(a2-3)Gal(b1-3)[Fuc(a1-4)]GlcNAc
# Outline: as §1
# Neu5Gc(a2-3)Gal(b1-4)Glc = molecular target: Neu5Gc(a2-3)Gal(b1-4)Glc
# Outline: as §1
# [20] = molecular target: Neu5Gc(a2-3)Gal(b1-4)GlcNAc
# Outline: as §1
# [21] = molecular target: Neu5Gc(a2-3)Gal(b1-4)GlcNAc(b1-3)Gal(b1-4)GlcNAc(b1-2)Man(a1-3)[Neu5Gc(a2-3)Gal(b1-4)GlcNAc(b1-3)Gal(b1-4)GlcNAc(b1-2)Man(a1-6)]Man(b1-4)GlcNAc(b1-4)GlcNAc
# Outline: as §1
# [22] = molecular target: Neu5Gc(a2-3)Gal(b1-4)[Fuc(a1-3)]GlcNAc
# Outline: as §1
# [23] = molecular target: Neu5Gc(a2-6)Gal(b1-4)GlcNAc
# Outline: as §1
# Neu5Gc(a2-6)GalNAc = molecular target: Neu5Gc(a2-6)GalNAc
# Outline: as §1
# [24] = molecular target: Neu5Gc(a2-8)Neu5Ac(a2-3)Gal(b1-4)GlcNAc
# Outline: as §1
# [25] = molecular target: Neu5Gc(a2-8)Neu5Gc(a2-3)Gal(b1-4)GlcNAc
# Outline: as §1
# [26] = molecular target: Neu5Gc(a2-8)Neu5Gc(a2-3)Gal(b1-4)GlcNAc(b1-3)Gal(b1-4)GlcNAc
# Outline: as §1
# [27] = molecular target: Neu5Gc(a2-8)Neu5Gc(a2-6)Gal(b1-4)GlcNAc
# Outline: as §1
# [28] = molecular target: Neu5Gc(b2-6)Gal(b1-4)GlcNAc
# Outline: as §1
binder,measurement,setting,value
EUL D1A second (Oryza sativa) (protein) GAATACTIGGVPVHTVRVFSAAGEDYCLTVRNGTACLAPKNPRDDYQHWIKDMRHSNKIRDEEGYPAFALVNKVTGEAIKHSTGQGHPVKLVPYNPEYQDESVLWTESKDVGKGFRCIRMVNNIYLNFDAFHGDKDHGGIHDGTEIVLWKWCEGDNQRWKILPWILEQKLISEEDLNSAVDHHHHHH,glycan array binding signal (z-score),[1],-0.278
same,glycan array binding signal (z-score),Neu5Ac(a2-8)Neu5Ac,-0.158
same,glycan array binding signal (z-score),[2],-0.223
same,glycan array binding signal (z-score),[3],-0.35
same,glycan array binding signal (z-score),[4],-1.8
same,glycan array binding signal (z-score),[5],0.14
same,glycan array binding signal (z-score),[6],-1.57
same,glycan array binding signal (z-score),[7],0.083
same,glycan array binding signal (z-score),[8],0.501
same,glycan array binding signal (z-score),[9],1.46
same,glycan array binding signal (z-score),[10],0.664
same,glycan array binding signal (z-score),[11],0.205
same,glycan array binding signal (z-score),[12],0.722
same,glycan array binding signal (z-score),[13],-0.715
same,glycan array binding signal (z-score),[14],-1.19
same,glycan array binding signal (z-score),Neu5Ac(b2-6)GalNAc,-0.496
same,glycan array binding signal (z-score),[15],-0.82
same,glycan array binding signal (z-score),[16],-1.29
same,glycan array binding signal (z-score),[17],0.22
same,glycan array binding signal (z-score),[18],-1.91
same,glycan array binding signal (z-score),[19],0.128
same,glycan array binding signal (z-score),Neu5Gc(a2-3)Gal(b1-4)Glc,0.509
same,glycan array binding signal (z-score),[20],1.04
same,glycan array binding signal (z-score),[21],-1.53
same,glycan array binding signal (z-score),[22],1.36
same,glycan array binding signal (z-score),[23],-1.13
same,glycan array binding signal (z-score),Neu5Gc(a2-6)GalNAc,0.72
same,glycan array binding signal (z-score),[24],-0.225
same,glycan array binding signal (z-score),[25],-1.4
same,glycan array binding signal (z-score),[26],1
same,glycan array binding signal (z-score),[27],-0.554
same,glycan array binding signal (z-score),[28],0.542

# Reprinted at random: 2 entries already listed
binder,measurement,setting,value
EUL D1A second (Oryza sativa) (protein) GAATACTIGGVPVHTVRVFSAAGEDYCLTVRNGTACLAPKNPRDDYQHWIKDMRHSNKIRDEEGYPAFALVNKVTGEAIKHSTGQGHPVKLVPYNPEYQDESVLWTESKDVGKGFRCIRMVNNIYLNFDAFHGDKDHGGIHDGTEIVLWKWCEGDNQRWKILPWILEQKLISEEDLNSAVDHHHHHH,glycan array binding signal (z-score),[2],-0.223
same,glycan array binding signal (z-score),[5],0.14
